Measurements: patent publication US20220412956A1, “METHODS FOR ASSESSING TOXICITY OF A COMPOUND” (The Chinese University of Hong Kong, priority 2021, published 2022)
Where two headings read alike, the source gives them in different places. At least one structure is not confirmed: it was looked up by name or label, or the drawing left a doubt.

How the values were obtained:
hPSC-CMs = conditions: cited from earlier work
SARS-CoV-2 [1] = conditions: African green monkey kidney Vero E6 cells; read-out: EC90, SARS-CoV-2 infection; cited from earlier work
COVID-19 = conditions: cited from earlier work; for time to clinical improvement: trial of 237 patients
DRP1 = test: qRT-PCR of DRP1 mRNA; format: cell-based, human; conditions: indicated doses, normoxic or hypoxic, normalised to B2M
SARS-CoV-2 [2] = conditions: human airway epithelial cells; cited from earlier work

For `CCC(CC)COC(=O)[C@H](C)N[P@](=O)(OC[C@H]1O[C@@](C#N)(c2ccc3c(N)ncnn23)[C@H](O)[C@@H]1O)Oc1ccccc1` [remdesivir], the “concentration with demonstrated efficacy” value (hPSC-CMs) is listed as 0.2 to 0.6 µM, the EC90 (SARS-CoV-2 [1]) is listed as 1760 nM and the median recovery time (COVID-19; 1062 persons with severe COVID-19, 10-day treatment, placebo 15 days) is listed as 10 days. For the same molecule, the mortality (COVID-19; by day 15, placebo […]) was 6.7%, the mortality (COVID-19; by day 29, placebo 15.2%) was 11.4% and the “clinical or survival benefit” value (COVID-19; open-label WHO Solidarity trial) was “no clinical or survival benefit”. The “time to clinical improvement” value (COVID-19; drug within 10 days of onset of symptoms, control 23) was 16 days, the “time to clinical improvement” value (COVID-19; control 23 days, statistically non-significant) was 21 days and the “level of DRP1 (mRNA)” value (DRP1) was “dose-dependent and significant increase”. The IC50 (SARS-CoV-2 [2]) was 69 nM.
